Molecules are shown by their SMILES. The list is a part of this screen's results and no random one: it gathers tests that were run many times, whatever their T/C, doses with no T/C, and many T/C values between a quarter and a half above the control. Other doses and runs of a compound stand elsewhere. T/C is the treated group as % of the vehicle group. Some doses have a count of surviving animals in place of a T/C: the source files T/C as zero there, which appears to mark a toxic dose or a test without result, not a measured value. Some survivor counts are full or nearly so, which does not show that the dose was tolerated: the source hardly ever lists a survival T/C far under the control, and the zero likely stands for such cases as well. Counts of survivors are from the toxicity check (mostly the fifth day) where no day follows; animals may have died later. Schedules are NCI's codes, read here as Q, the interval in days (D) or hours (H), X, the number of doses. For survival time, this PubChem deposit counts one and a half times the control or more as active, and values a quarter to a half above the control carry no call in these data; other NCI protocols may use other cut-offs.

This test has as its system L1210 leukemia ip in BDF1 mice, survival T/C. The test is described as follows: NCI In Vivo Anticancer Drug Screen. Data for tumor model L1210 Leukemia (intraperitoneal) in B6D2F1 (BDF1) mice. The note with it: T/C endpoint: mean survival time, vehicle: saline, higher T/C = longer survival.

As for `CN(CCCCN(C)CCOS(C)(=O)=O)CCOS(C)(=O)=O`, the T/C was 127 % of control (dose: 0.4 mg/kg/injection, schedule: Q01DX015 (ip)); 140 % of control (dose: 0.8 mg/kg/injection, schedule: Q01DX015 (ip)); 149 % of control (dose: 1.7 mg/kg/injection, schedule: Q01DX015 (ip)); 149 % of control (dose: 2.6 mg/kg/injection, schedule: Q01DX015 (ip)); 142 % of control (dose: 4.0 mg/kg/injection, schedule: Q01DX015 (ip)); 134 % of control (dose: 5.5 mg/kg/injection, schedule: Q01DX001 (ip)). The T/C (dose: 12.5 mg/kg/injection, schedule: Q01DX001 (ip)) was 142 % of control. The survivor count (dose: 6.0 mg/kg/injection, schedule: Q01DX015 (ip)) is recorded as 6 of 6; the survivor count (dose: 50.0 mg/kg/injection, schedule: Q01DX001 (ip)) is 1 of 4; the survivor count (dose: 100.0 mg/kg/injection, schedule: Q01DX001 (ip)) is listed as 0 of 4; the survivor count (dose: 200.0 mg/kg/injection, schedule: Q01DX001 (ip)) is listed as 0 of 4; the survivor count (dose: 400.0 mg/kg/injection, schedule: Q01DX001 (ip)) is recorded as 0 of 4.

(Values after PubChem BioAssay AID248 (DTP/NCI, 2004).)
